Test results as given in PubChem BioAssay AID588479 (NMMLSC, 2011).
This list was built around the results that the source calls inconclusive (neither active nor inactive); the mix of calls is not that of the screen. Calls of active or inactive are those of the source.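 Rule for the calls: active = eight-GTPase mean potency score over 50, needing half-effect dose up to 10 µM and response span 30% or more; inconclusive = no clear call, values can overlap the other calls; inactive = the rest.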

These compounds were tested on RacWT (assay: inhibitors of GTP binding to eight small GTPases, SAR follow-up, biochemical, round 1 SAR, Mg buffer, multiplex flow cytometry (AID 588479)). Conditions: multiplex GST-GTPase beads, Bodipy-GTP binding, wild type; at 100 µM (top of the series).
Procedure, shortened: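 Control set – DMSO wells as high control, 0.5 mM unlabeled GTP as low control · Assay system – GST-GTPase bead multiplex, wild-type and constitutively active forms · Measured by – flow cytometry, green median fluorescence per bead · Evaluation – normalized response, EC50 by four-parameter fit · Times – binding incubation 40–45 min, 4 °C · Reagent – Bodipy-FL-GTP at 100 nM final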

SMILES | response, lower = inhibition | outcome
CCOC(=O)c1c(N)sc2ccccc12 | inactive: 109% | 
CN1CCc2c(sc(NC(=O)Nc3ccc(F)cc3)c2C(=O)O)C1 |  | inconclusive
Cc1ccc(NC(=O)Nc2sc3c(c2C(=O)O)CCN(C)C3)cc1 | inactive: 107% | 
CCOC(=O)c1c(NC(=O)Nc2ccc(C)cc2)sc2c1CCN(C)C2 |  | inconclusive
CCOC(=O)c1c(NC(=O)Nc2ccc(F)cc2)sc2c1CCN(C)C2 |  | inconclusive
CC1(C)Cc2c(sc(NC(=S)Nc3ccccc3)c2C(=O)O)CO1 | inactive: 112% | 
CCOC(=O)c1c(NC(=S)NC(=O)c2ccccc2)sc2ccccc12 |  | inconclusive
CCOC(=O)c1c(NC(=O)NC(C)(C)C)sc2c1CCN(C)C2 |  | inconclusive
CN1CCc2c(sc3nc(Nc4ccc(F)cc4)oc(=O)c23)C1 |  | inconclusive
Cc1ccc(Nc2nc3sc4c(c3c(=O)o2)CCN(C)C4)cc1 |  | inconclusive
CC(C)(C)OC(=O)c1c(NC(=S)NC(=O)c2ccccc2)sc2c1CCOC2 |  | inconclusive
CC1(C)Cc2c(sc(NC(=S)NC(=O)c3ccccc3Br)c2C(=O)O)CO1 | inactive: 82.2% | 
COC(=O)c1c(N)sc2c1CC(C)(C)OC2 |  | inconclusive
CCOC(=O)c1c(NC(=S)Nc2ccccc2)sc2c1CC(C)(C)OC2 |  | inconclusive

A few values from above.
response, lower = inhibition with `CC1(C)Cc2c(sc(NC(=S)Nc3ccccc3)c2C(=O)O)CO1` reads inactive: 112%
outcome with `CC(C)(C)OC(=O)c1c(NC(=S)NC(=O)c2ccccc2)sc2c1CCOC2` reads inconclusive
